Source: patent publication US20160050929A1, “METHODS OF CONTROLLING NEONICOTINOID RESISTANT PESTS” (SYNGENTA PARTICIPATIONS AG, priority 2013, published 2016)
Some entries share one result that the patent states for a list of compounds. For some of these results: At least one structure is not confirmed: it was looked up by name or label, or the drawing left a doubt.

What was measured:
[1] = tested on: Q-biotype strain of Bemisia tabaci (Neonicotinoid resistant); test: Control of neonicotinoid and pyrethroid resistant tobacco whitefly (bioassay methods A and B); type: in vivo; details: for control of the Q-biotype (Neonicotinoid resistant) strain of Bemisia tabaci: 200 ppm; for resistance factor: Q-biotype resistant vs susceptible Bemisia tabaci strain, ratio of concentrations giving same mortality (i.e. 80%)
[2] = tested on: FRC-P strain of Myzus persicae (Neonicotinoid resistant); test: Control of neonicotinoid resistant green peach aphid (bioassay methods A and B); type: in vivo; details: for control of the FRC-P (Neonicotinoid resistant) strain of Myzus persicae: 200 ppm; for resistance factor (RF80): FRC-P resistant vs susceptible Myzus persicae strain, ratio of concentrations giving same mortality (i.e. 80%)

| SMILES | control of the Q-biotype (Neonicotinoid resistant) strain of Bemisia tabaci [1] | control of the FRC-P (Neonicotinoid resistant) strain of Myzus persicae [2] | resistance factor [1] | resistance factor (RF80) [2] |
| --- | --- | --- | --- | --- |
| N#C/N=C1\SCCN1Cc1ccc(Cl)nc1 [Thiacloprid, thiacloprid, reference compound] | < 80% | < 80% | – | – |
| C#Cc1cncc([C@]2(C#N)C[C@H]3CC[C@@H](C2)N3C(C)C#N)c1 (stereo partly shown) [Compound 1.078] | at least 80% | at least 80% | ≤ 20 | ≤ 20 |
| C#Cc1cncc([C@]2(C#N)C[C@H]3CC[C@@H](C2)N3C(C)C(=O)OCC)c1 (stereo partly shown) [Compound 1.076] | – | at least 80% | – | ≤ 20 |
| C#Cc1cncc([C@]2(C#N)C[C@H]3CC[C@@H](C2)N3CC(=C)F)c1 [Compound 1.093] | – | at least 80% | – | ≤ 20 |
| C#CCN1[C@@H]2C=C[C@H]1C[C@](C#N)(c1cncc(C#C)c1)C2 [Compound 2.070] | at least 80% | at least 80% | ≤ 20 | ≤ 20 |
| C#Cc1cncc(C2(C#N)C[C@H]3C=C[C@@H](C2)N3C(C)C#C)c1 (stereo partly shown) [Compound 2.075] | – | at least 80% | – | ≤ 20 |
| C#Cc1cncc([C@]2(C#N)C[C@H]3C=C[C@@H](C2)N3C(C)C)c1 [Compound 2.111] | at least 80% | – | ≤ 20 | – |
| C#CCN1[C@@H]2CC[C@H]1C[C@](C#N)(c1cncc(C#C)c1)C2 [Compound 1.070] | at least 80% | – | ≤ 20 | – |
| C#Cc1cncc([C@]2(C#N)C[C@H]3CC[C@@H](C2)N3CC2CCCO2)c1 (stereo partly shown) [Compound 1.082] | – | at least 80% | – | ≤ 20 |
| C#Cc1cncc([C@]2(C#N)C[C@H]3C=C[C@@H](C2)N3C2CC2)c1 [Compound 2.107] | at least 80% | – | ≤ 20 | – |
| C#Cc1cncc([C@]2(C#N)C[C@H]3CC[C@@H](C2)N3C2CC2)c1 [Compound 1.107] | – | at least 80% | – | ≤ 20 |
| C#Cc1cncc([C@]2(C#N)C[C@H]3CC[C@@H](C2)N3C/C=C\Cl)c1 [Compound 1.092] | at least 80% | – | ≤ 20 | – |
| C#Cc1cncc([C@]2(C#N)C[C@H]3C=C[C@@H](C2)N3CCCC(F)(F)F)c1 [Compound 2.089] | at least 80% | at least 80% | ≤ 20 | ≤ 20 |
| C#Cc1cncc([C@]2(C#N)C[C@H]3C=C[C@@H](C2)N3CCOCCOC)c1 [Compound 2.096] | at least 80% | – | ≤ 20 | – |
| C#Cc1cncc([C@]2(C#N)C[C@H]3CC[C@@H](C2)N3CC#CCC)c1 [Compound 1.072] | – | at least 80% | – | ≤ 20 |
| C#Cc1cncc([C@]2(C#N)C[C@H]3C=C[C@@H](C2)N3CC)c1 [Compound 2.108] | at least 80% | – | ≤ 20 | – |
| C[Si](C)(C)C#Cc1cncc([C@]2(C#N)C[C@H]3CC[C@@H](C2)N3CC(F)(F)F)c1 [Compound 1.138] | at least 80% | at least 80% | ≤ 20 | ≤ 20 |
| C#Cc1cncc([C@]2(C#N)C[C@H]3CC[C@@H](C2)N3C(C)C)c1 [Compound 1.111] | – | at least 80% | – | ≤ 20 |
| CC#Cc1cncc([C@]2(C#N)C[C@H]3C=C[C@@H](C2)N3CC(F)(F)F)c1 [Compound 2.116] | at least 80% | at least 80% | ≤ 20 | ≤ 20 |
| C#Cc1cncc([C@]2(C#N)C[C@H]3CC[C@@H](C2)N3CC2CCO2)c1 (stereo partly shown) [Compound 1.079] | – | at least 80% | – | ≤ 20 |
| C#Cc1cncc([C@]2(C#N)C[C@H]3CC[C@@H](C2)N3CC(=O)OC(C)C)c1 [Compound 1.086] | – | at least 80% | – | ≤ 20 |
| C#Cc1cncc([C@]2(C#N)C[C@H]3C=C[C@@H](C2)N3CCOC)c1 [Compound 2.088] | at least 80% | at least 80% | ≤ 20 | ≤ 20 |

| SMILES | control of the Q-biotype (Neonicotinoid resistant) strain of Bemisia tabaci [1] | control of the FRC-P (Neonicotinoid resistant) strain of Myzus persicae [2] | resistance factor [1] | resistance factor (RF80) [2] |
| --- | --- | --- | --- | --- |
| CC#Cc1cncc([C@]2(C#N)C[C@H]3C=C[C@@H](C2)N3C=O)c1 [Compound 2.127] | – | at least 80% | – | ≤ 20 |
| C#Cc1cncc([C@]2(C#N)C[C@H]3C=C[C@@H](C2)N3CC(F)F)c1 [Compound 2.074] | – | at least 80% | – | ≤ 20 |
| C#Cc1cncc([C@]2(C#N)C[C@H]3C=C[C@@H](C2)N3CC#CC)c1 [Compound 2.071] | at least 80% | at least 80% | ≤ 20 | ≤ 20 |
| C#Cc1cncc([C@]2(C#N)C[C@H]3CC[C@@H](C2)N3C)c1 [Compound 1.112] | at least 80% | at least 80% | ≤ 20 | ≤ 20 |
| C#Cc1cncc([C@]2(C#N)C[C@H]3C=C[C@@H](C2)N3CC(F)(F)F)c1 [Compound 2.065] | – | at least 80% | – | ≤ 20 |
| C#Cc1cncc([C@]2(C#N)C[C@H]3CC[C@@H](C2)N3CC)c1 [Compound 1.108] | at least 80% | at least 80% | ≤ 20 | ≤ 20 |
| C#Cc1cncc([C@]2(C#N)C[C@H]3CC[C@@H](C2)N3CC(=O)CC)c1 [Compound 1.084] | – | at least 80% | – | ≤ 20 |
| CC#Cc1cncc([C@]2(C#N)C[C@H]3CC[C@@H](C2)N3CC(F)(F)F)c1 [Compound 1.116] | – | at least 80% | – | ≤ 20 |
| C#Cc1cncc([C@]2(C#N)C[C@H]3CC[C@@H](C2)N3CC(F)(F)F)c1 [Compound 1.065] | at least 80% | at least 80% | ≤ 20 | ≤ 20 |
| C#Cc1cncc([C@]2(C#N)C[C@H]3CC[C@@H](C2)N3CCOC)c1 [Compound 1.088] | at least 80% | at least 80% | ≤ 20 | ≤ 20 |
| C#Cc1cncc([C@]2(C#N)C[C@H]3CC[C@@H](C2)N3C(C)C#C)c1 (stereo partly shown) [Compound 1.075] | at least 80% | at least 80% | ≤ 20 | ≤ 20 |
| C#Cc1cncc([C@]2(C#N)C[C@H]3CC[C@@H](C2)N3CC(F)F)c1 [Compound 1.074] | at least 80% | – | ≤ 20 | – |
| C#Cc1cncc([C@]2(C#N)C[C@H]3CC[C@@H](C2)N3CC(=C)Cl)c1 [Compound 1.087] | – | at least 80% | – | ≤ 20 |
| C#Cc1cncc([C@]2(C#N)C[C@H]3CC[C@@H](C2)N3CC(F)(F)C(F)(F)C(F)(F)F)c1 [Compound 1.067] | – | at least 80% | – | ≤ 20 |
| CC#Cc1cncc([C@]2(C#N)C[C@H]3CC[C@@H](C2)N3CC#CCC)c1 [Compound 1.122] | at least 80% | – | ≤ 20 | – |
| O=[N+]([O-])NC1=NCCN1Cc1ccc(Cl)nc1 [Imidacloprid, imidacloprid, reference compound] | < 80% | < 80% | > 64 | > 64 |
| C#Cc1cncc([C@]2(C#N)C[C@H]3CC[C@@H](C2)N3C(C)C(=O)OC)c1 (stereo partly shown) [Compound 1.073] | – | at least 80% | – | ≤ 20 |
| C#Cc1cncc([C@]2(C#N)C[C@H]3C=C[C@@H](C2)N3C=O)c1 [Compound 2.109] | – | at least 80% | – | ≤ 20 |
| C#Cc1cncc([C@]2(C#N)C[C@H]3CC[C@@H](C2)N3CC(=C)C)c1 [Compound 1.094] | at least 80% | – | ≤ 20 | – |
| C#CCCN1[C@@H]2CC[C@H]1C[C@](C#N)(c1cncc(C#C)c1)C2 [Compound 1.098] | at least 80% | – | ≤ 20 | – |
| C#Cc1cncc([C@]2(C#N)C[C@H]3C=C[C@@H](C2)N3CC(=C)C)c1 [Compound 2.094] | at least 80% | – | ≤ 20 | – |
